Test results from the supplement of paper PMC11732987, “Enantioselective OTUD7B fragment discovery through chemoproteomics screening and high-throughput optimisation” (Communications Chemistry, 2025).
The other results are listed elsewhere or left out. The data scatter; read single values as rough.

Protein sequences, listed by entry. Tags and fused reporters are not part of them. Lines headed by an entry give the natural chain unless they say otherwise; changes in a name come on top. Residues count along the entry.
UniProt P78527, whole entry, looked up: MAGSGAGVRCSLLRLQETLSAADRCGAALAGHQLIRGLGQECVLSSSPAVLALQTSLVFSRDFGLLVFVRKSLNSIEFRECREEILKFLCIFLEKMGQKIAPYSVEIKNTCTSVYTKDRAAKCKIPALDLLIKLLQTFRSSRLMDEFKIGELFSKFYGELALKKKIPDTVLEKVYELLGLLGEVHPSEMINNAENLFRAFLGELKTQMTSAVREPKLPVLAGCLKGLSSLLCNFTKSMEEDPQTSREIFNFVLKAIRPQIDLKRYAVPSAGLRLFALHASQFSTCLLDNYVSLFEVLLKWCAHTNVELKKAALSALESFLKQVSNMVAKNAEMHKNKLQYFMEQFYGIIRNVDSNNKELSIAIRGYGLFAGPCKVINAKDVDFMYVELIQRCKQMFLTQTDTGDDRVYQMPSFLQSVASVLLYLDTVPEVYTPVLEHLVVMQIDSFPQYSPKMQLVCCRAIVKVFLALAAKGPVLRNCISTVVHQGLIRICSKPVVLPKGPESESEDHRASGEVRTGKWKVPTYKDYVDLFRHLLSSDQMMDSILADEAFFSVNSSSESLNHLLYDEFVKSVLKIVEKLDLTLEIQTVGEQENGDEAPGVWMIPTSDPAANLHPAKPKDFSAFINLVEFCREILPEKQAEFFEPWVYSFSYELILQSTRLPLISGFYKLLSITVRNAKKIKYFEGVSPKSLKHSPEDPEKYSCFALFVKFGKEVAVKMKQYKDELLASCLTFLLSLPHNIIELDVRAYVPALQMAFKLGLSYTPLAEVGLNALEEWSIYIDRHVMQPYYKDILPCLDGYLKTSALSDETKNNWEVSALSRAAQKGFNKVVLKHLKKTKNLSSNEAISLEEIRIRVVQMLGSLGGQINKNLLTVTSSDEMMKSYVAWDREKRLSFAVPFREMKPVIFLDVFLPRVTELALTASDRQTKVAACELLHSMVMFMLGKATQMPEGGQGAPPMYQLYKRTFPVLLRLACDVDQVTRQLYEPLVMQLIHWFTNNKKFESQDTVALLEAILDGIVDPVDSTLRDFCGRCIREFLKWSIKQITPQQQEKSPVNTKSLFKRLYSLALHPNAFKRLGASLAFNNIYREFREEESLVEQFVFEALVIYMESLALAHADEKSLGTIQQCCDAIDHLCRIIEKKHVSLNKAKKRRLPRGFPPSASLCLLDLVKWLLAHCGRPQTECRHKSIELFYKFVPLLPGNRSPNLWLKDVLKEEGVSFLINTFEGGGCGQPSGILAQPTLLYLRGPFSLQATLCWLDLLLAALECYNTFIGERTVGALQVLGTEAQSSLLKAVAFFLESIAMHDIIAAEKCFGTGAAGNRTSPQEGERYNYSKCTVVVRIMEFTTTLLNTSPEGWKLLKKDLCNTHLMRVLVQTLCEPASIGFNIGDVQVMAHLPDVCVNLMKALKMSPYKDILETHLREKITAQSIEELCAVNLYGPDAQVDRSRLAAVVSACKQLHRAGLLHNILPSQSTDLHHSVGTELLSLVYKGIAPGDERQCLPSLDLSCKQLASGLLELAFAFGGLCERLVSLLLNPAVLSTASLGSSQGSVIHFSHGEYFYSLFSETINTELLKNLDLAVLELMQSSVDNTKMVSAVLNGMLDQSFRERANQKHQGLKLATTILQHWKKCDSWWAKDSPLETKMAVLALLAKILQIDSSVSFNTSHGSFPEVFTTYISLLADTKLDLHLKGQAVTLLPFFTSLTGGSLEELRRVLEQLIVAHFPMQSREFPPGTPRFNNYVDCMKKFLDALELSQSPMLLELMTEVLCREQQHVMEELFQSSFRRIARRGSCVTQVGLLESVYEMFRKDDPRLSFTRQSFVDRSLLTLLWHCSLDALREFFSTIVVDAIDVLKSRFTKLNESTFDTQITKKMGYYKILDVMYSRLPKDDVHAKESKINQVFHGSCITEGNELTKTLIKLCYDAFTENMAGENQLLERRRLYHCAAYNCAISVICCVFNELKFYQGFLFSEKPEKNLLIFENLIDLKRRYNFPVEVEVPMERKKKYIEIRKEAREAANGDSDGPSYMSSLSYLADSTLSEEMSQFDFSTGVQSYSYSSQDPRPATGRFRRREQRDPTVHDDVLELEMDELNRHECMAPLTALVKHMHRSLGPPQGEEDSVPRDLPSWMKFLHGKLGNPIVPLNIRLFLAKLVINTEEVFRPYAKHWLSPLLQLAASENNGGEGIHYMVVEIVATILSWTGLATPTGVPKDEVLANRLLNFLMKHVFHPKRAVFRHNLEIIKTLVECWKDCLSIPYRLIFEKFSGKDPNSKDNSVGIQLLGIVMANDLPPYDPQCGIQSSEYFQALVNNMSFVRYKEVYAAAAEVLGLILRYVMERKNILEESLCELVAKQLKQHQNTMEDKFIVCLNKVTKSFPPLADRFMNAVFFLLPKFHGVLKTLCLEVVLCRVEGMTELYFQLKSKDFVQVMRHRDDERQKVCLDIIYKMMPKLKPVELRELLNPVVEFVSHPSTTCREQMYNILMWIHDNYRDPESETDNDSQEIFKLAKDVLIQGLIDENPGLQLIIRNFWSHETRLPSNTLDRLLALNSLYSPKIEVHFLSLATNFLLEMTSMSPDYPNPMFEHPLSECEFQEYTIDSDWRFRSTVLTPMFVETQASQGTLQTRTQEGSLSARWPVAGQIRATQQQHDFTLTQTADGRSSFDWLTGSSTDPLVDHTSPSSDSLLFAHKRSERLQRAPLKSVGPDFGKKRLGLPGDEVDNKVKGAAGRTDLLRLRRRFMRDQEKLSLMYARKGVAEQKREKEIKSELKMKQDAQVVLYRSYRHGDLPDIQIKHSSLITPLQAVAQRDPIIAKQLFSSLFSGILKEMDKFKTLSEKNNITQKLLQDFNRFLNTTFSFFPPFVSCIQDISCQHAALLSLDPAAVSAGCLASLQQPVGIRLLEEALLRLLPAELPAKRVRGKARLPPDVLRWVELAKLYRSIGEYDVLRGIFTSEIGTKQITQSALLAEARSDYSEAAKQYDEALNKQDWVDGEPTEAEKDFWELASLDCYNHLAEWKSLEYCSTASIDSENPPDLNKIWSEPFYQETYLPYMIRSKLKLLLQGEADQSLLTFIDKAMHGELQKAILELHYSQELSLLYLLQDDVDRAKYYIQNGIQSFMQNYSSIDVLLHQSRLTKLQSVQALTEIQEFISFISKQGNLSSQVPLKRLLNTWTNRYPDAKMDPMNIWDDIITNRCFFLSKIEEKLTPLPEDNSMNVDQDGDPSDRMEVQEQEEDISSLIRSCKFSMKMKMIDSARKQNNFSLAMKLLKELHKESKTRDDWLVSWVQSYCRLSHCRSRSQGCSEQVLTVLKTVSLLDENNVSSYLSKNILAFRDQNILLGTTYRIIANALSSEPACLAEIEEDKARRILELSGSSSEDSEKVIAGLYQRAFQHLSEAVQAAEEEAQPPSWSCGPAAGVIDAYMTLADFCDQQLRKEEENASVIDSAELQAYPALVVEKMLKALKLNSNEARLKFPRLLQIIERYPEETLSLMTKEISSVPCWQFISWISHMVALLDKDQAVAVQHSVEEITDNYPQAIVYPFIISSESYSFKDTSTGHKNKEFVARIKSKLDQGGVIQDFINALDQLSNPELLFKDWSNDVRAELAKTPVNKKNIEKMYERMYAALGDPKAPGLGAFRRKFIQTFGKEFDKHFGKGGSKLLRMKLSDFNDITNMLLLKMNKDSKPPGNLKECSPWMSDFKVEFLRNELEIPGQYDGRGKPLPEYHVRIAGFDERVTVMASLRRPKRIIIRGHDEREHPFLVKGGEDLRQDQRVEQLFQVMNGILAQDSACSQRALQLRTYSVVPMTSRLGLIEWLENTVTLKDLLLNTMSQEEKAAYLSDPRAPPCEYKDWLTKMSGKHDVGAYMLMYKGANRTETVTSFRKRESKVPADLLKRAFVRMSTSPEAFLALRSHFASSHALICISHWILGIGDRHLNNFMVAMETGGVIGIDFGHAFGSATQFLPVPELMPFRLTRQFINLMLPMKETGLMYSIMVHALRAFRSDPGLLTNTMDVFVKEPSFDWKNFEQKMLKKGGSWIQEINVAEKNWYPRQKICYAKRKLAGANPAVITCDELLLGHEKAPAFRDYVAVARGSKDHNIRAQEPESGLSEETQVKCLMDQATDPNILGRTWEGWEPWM
UniProt P53041: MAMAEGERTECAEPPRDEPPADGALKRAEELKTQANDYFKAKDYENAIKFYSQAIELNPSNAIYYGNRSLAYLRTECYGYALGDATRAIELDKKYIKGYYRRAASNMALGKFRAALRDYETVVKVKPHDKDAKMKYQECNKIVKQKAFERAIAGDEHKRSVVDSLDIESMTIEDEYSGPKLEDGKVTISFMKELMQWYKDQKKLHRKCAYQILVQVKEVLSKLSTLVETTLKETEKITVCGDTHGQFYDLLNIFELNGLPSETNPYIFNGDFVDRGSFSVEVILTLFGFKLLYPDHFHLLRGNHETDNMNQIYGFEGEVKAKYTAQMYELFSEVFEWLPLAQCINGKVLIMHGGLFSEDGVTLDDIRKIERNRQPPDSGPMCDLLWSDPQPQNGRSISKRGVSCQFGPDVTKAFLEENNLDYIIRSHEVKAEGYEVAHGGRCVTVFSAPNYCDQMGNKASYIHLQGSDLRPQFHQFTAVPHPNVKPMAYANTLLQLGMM
UniProt O43172: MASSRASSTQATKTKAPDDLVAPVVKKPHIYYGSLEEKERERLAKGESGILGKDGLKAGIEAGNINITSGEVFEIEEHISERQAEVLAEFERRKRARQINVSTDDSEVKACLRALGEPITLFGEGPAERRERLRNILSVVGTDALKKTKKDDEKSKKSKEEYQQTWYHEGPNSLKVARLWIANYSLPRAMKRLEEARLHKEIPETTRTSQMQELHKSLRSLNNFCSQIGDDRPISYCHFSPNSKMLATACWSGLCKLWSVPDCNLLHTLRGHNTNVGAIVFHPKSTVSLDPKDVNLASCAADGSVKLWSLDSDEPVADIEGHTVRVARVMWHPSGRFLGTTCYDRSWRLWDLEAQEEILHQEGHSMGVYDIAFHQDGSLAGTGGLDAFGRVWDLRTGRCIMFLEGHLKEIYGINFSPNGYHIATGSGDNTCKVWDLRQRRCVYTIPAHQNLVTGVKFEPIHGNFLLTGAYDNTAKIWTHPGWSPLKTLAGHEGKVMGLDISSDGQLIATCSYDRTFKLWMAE
UniProt O14802: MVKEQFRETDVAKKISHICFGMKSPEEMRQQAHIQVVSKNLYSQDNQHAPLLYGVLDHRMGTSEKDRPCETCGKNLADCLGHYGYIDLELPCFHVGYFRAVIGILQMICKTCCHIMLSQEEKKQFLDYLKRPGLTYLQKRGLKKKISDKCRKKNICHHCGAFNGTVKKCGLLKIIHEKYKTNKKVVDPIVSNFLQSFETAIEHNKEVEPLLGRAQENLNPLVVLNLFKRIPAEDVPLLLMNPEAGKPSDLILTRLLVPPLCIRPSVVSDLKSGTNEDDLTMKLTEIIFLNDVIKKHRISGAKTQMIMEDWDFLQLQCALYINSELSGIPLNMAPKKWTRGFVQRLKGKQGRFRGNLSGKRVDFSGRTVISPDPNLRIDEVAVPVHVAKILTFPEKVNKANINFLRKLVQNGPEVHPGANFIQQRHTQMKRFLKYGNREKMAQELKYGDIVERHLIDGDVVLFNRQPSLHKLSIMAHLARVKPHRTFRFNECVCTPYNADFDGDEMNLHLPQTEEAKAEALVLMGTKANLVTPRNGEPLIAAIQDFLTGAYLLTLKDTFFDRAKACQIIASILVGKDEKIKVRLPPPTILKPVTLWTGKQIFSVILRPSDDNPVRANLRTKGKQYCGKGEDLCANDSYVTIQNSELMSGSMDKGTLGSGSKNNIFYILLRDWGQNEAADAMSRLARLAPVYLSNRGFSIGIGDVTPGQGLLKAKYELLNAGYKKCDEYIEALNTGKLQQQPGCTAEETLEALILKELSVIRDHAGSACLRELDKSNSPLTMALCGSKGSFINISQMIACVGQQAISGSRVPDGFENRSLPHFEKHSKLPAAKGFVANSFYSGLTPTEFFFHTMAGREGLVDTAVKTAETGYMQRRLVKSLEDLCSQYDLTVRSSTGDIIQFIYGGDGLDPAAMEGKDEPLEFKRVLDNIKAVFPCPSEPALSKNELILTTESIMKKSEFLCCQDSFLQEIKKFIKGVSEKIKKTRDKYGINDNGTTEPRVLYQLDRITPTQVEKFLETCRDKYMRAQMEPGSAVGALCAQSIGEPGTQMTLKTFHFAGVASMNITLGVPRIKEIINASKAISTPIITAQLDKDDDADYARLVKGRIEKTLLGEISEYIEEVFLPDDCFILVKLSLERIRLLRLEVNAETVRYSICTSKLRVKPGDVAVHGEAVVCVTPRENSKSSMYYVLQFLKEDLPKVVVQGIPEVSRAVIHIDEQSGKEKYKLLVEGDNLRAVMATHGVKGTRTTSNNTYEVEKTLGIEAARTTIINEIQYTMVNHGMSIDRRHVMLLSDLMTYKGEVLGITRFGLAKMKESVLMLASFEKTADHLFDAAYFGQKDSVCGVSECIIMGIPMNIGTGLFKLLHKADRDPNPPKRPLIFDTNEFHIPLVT
UniProt Q5H9R7, 822-843: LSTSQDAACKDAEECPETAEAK
UniProt Q05655, 505-524: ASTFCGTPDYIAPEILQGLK

Legend:
[1] = compound: ClCC(=O)N[C@@H]1CCCc2ccccc12; assay: log2 mean competition ratio of IA-DTB cysteine labelling (DMSO/compound) (log2 ratio); higher = stronger cysteine engagement by compound; details: treatment time: 4 h, cell line lysate: HEK293T
Description: (§1)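 IA-DTB competitive cysteine chemoproteomics in HEK293T RIPA lysate. Lysates were treated with compound 29 or 30 at 50 or 200 µM for 4 h, then IA-DTB (500 µM, 1 h), trypsin-digested, NeutrAvidin-enriched and analysed by diaPASEF. Competition ratio = intensity DMSO / intensity compound (n=4 treated, n=64 DMSO); binding: mean log2 CR ≥ 1 and p ≤ 0.05 plus QC filters. Target is the cysteine site.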

[2] = compound: ClCC(=O)N[C@H]1CCCc2ccccc12; assay: as above; details: treatment time: 4 h, cell line lysate: HEK293T
Description: as §1

Target	log2 mean competition ratio ([1]; 50 µM)	log2 mean competition ratio ([1]; 200 µM)	log2 mean competition ratio ([2]; 50 µM)	log2 mean competition ratio ([2]; 200 µM)
PRC1 C531 (UniProt O43663)	0.295	0.195	0.364	0.197
PRKCB C488 (UniProt P05771)	-0.0883	0.22	0.105	0.246
PRMT7 C136 (UniProt Q9NVM4)	-0.164	-0.278	-0.219	0.0285
PPP1R3D C291 (UniProt O95685)	-0.11	-0.0797	0.171	0.277
PPP4R1 C198 (UniProt Q8TF05)	0.0265	-0.147	0.135	0.352
PRKDC C491 (UniProt P78527)	0.124	-0.325	-0.228	-0.425
PRDX6 C47 (UniProt P30041)	-1.29	-1.36	-1.2	-1.2
PPP5C C404 (UniProt P53041)	-0.248	0.0314	-0.289	0.00114
PRKCQ C322 (UniProt Q04759)	-0.0918	-0.15	-0.166	-0.116
PRMT3 C417 (UniProt O60678)	-0.223	-0.126	0.034	-0.0725
POLR2B C221 (UniProt P30876)	-0.0644	0.0906	0.00766	0.138
PPP1R9B C272 (UniProt Q96SB3)	0.366	-0.477	0.00668	-0.249
PRC1 C14 (UniProt O43663)	-0.251	-0.0294	-0.39	-0.11
POP5 C11 (UniProt Q969H6)	0.219	-0.00453	0.0417	-0.00207
PPIP5K2 C729	-0.0611	-0.341	-0.448	-0.211
PRKDC C1312 (UniProt P78527)	0.0515	-0.075	0.06	-0.0811
PROSER1 C171 (UniProt Q86XN7)	0.182	0.193	-0.0259	0.484
PRIM2 C367 (UniProt P49643)	-0.0328	0.271	-0.109	0.345
PPIG C310 (UniProt Q13427)	0.217	-0.117	0.0483	-0.26
PRKCB C386 (UniProt P05771)	-0.689	0.0409	-0.28	-0.231
PPP1CC;PPP1CA C127;(C127)	0.121	-0.11	0.119	-0.000287
PRKCE C352 (UniProt Q02156)	0.218	0.202	-0.0308	-0.214
PPP2R1A C174 (UniProt P30153)	-0.137	-0.191	-0.0524	-0.125
PPP4R1 C663 (UniProt Q8TF05)	-0.00272	0.153	0.361	0.414
POLR2A C641	-0.0741	0.467	-0.134	0.37
PRKAR1A C362 (UniProt P10644)	0.194	-0.0122	-0.0653	-0.104

Target	log2 mean competition ratio ([1]; 50 µM)	log2 mean competition ratio ([1]; 200 µM)	log2 mean competition ratio ([2]; 50 µM)	log2 mean competition ratio ([2]; 200 µM)
PPP6R1 C455 (UniProt Q9UPN7)	-0.163	-0.0403	-0.666	-0.108
PPIP5K2 C338	-0.242	0.00239	-0.172	0.028
PRPF18 C325 (UniProt Q99633)	0.00426	-0.193	0.079	0.113
PRKDC C4106 (UniProt P78527)	0.359	0.155	0.417	0.208
PRPF4 C299 (UniProt O43172)			-0.213	-0.0342
POLR3A C934 (UniProt O14802)	-0.134	-0.217	-0.0628	0.0868
PRKD2 C615		0.455	0.0525	-0.0859
PPA2 C17 (UniProt Q9H2U2)	-0.00597	0.151	-0.161	-0.0838
POLR2A C1430			0.357	-0.0817
PRKDC C3837 (UniProt P78527)			-0.412	0.34
PRIM2 C384 (UniProt P49643)	0.123		-0.891	0.486
PRR11 C120	0.206	-0.0941	-0.206	0.0726
PPFIA1 C738 (UniProt Q13136)			-0.226	-0.0171
PPIL2 C387 (UniProt Q13356)			0.0495	-0.188
PRMT1 C272 (UniProt Q99873)			0.383	-0.392
PPIP5K2 C615	-0.0379	-0.0158	0.493	-0.211
PRKDC C2435 (UniProt P78527)			0.314	0.0308
PPP6R3 C467 (UniProt Q5H9R7)			0.0677	-0.307
PRPF6 C339 (UniProt O94906)			-0.247	0.134
PRDM2 C875 (UniProt Q13029)			-0.0149	-0.123
POM121 C217 (UniProt Q96HA1)			0.176	0.351
POLRMT C119 (UniProt O00411)	0.099	0.343	0.491	0.483
POLR3A C767 (UniProt O14802)			0.113	-0.0119
PPA2 C302 (UniProt Q9H2U2)			-0.216	0.00817
PRKAB2 C178 (UniProt O43741)			0.00198	0.279
POLR2A C154			-0.0933	0.0604

Target	log2 mean competition ratio ([1]; 50 µM)	log2 mean competition ratio ([1]; 200 µM)	log2 mean competition ratio ([2]; 50 µM)	log2 mean competition ratio ([2]; 200 µM)
PPP5C C139 (UniProt P53041)			0.0441	-0.0933
PPP5C C11 (UniProt P53041)			-0.401	-0.00142
PRKD2 C217			-0.0559	0.0131
POLR3A C883 (UniProt O14802)	0.394		0.118	-0.173
PRAME C188 (UniProt P78395)		-0.154	-0.051	-0.0918
PPP2R5D C17 (UniProt Q14738)			0.411	-0.155
POLR3A C565 (UniProt O14802)	0.161	0.0133	-0.247	-0.258
PRPF4 C342 (UniProt O43172)	0.176	-0.0624	-0.0106	-0.0641
POLR2A C233			0.663	0.0528
PPIP5K2 C1094	-0.0155			0.195
POP1 C777 (UniProt Q99575)			-0.254	0.193
PRMT3 C67 (UniProt O60678)	-0.265	0.095	-0.346	0.0436
PREB C128 (UniProt Q9HCU5)			-0.0639	-0.166
POLR2C C107 (UniProt P19387)			-0.0662	0.265
PPP6R3_(C830,C830,C836,C836) (UniProt Q5H9R7)			-0.474	0.00661
PPHLN1 C309 (UniProt Q8NEY8)			-0.219	0.0779
PPARGC1B C316 (UniProt Q86YN6)			0.196	0.0294
PPM1K C97			-0.359	-0.0258
PREP C255			0.255	-0.21
PRKCD C509 (UniProt Q05655)			-0.0457	-0.0639
PREP C57			-0.379	0.0452
PPM1E C4 (UniProt Q8WY54)			0.277	0.108
POLR3C C79 (UniProt Q9BUI4)			0.227	-0.171
PPIP5K2 C842			-0.412	-0.13
PRPF4 C441 (UniProt O43172)			0.57	-0.0704
PRKDC C974 (UniProt P78527)			-0.299	0.0262

Target	log2 mean competition ratio ([1]; 50 µM)	log2 mean competition ratio ([1]; 200 µM)	log2 mean competition ratio ([2]; 50 µM)	log2 mean competition ratio ([2]; 200 µM)
PPP1R3D C184 (UniProt O95685)			-0.0603	-0.201
PPCDC C166 (UniProt Q96CD2)			-0.367	-0.0291
PPP2R1A C329 (UniProt P30153)			-0.113	-0.431
POLRMT C94 (UniProt O00411)			-0.553	-0.148
PRKDC C3293 (UniProt P78527)			-0.443	-0.167
PRKDC C2342 (UniProt P78527)			-0.291	-0.112
PRMT6 C221 (UniProt Q96LA8)			0.448	0.443
PRKRA C163 (UniProt O75569)			0.448	0.196
PPP1R12B C718 (UniProt O60237)			0.253	0.00974
PRPS2 C91 (UniProt P11908)			-0.123	-0.0708
PRKAR2B C211 (UniProt P31323)			-0.136	0.15
PRDX5 C100 (UniProt P30044)			0.0845	-0.263
PRKCD C393 (UniProt Q05655)			0.0172	-0.298
PPFIBP1 C788 (UniProt Q86W92)			0.378	0.196
PRPS1 C265			0.773	-0.402
PRKDC C373 (UniProt P78527)			0.277	-0.144
PPFIBP1 C453 (UniProt Q86W92)			0.275	-0.185
POLR3B C161 (UniProt Q9NW08)			0.138	0.569
PPRC1 C1084 (UniProt Q5VV67)			-0.397	-0.443
PPP6R3 C500 (UniProt Q5H9R7)			-0.165	0.0922
PRORP C367 (UniProt O15091)			0.156	-0.00736
PRKCH C501 (UniProt P24723)			0.112	0.241
PPM1G C351 (UniProt O15355)			0.131	-0.0284
PPA1 C254 (UniProt Q15181)			-0.326	0.0426
PRKCZ C503 (UniProt Q05513)			0.111	0.111

Part of the list above, with bars between the fields.
Target | log2 mean competition ratio ([1]; 50 µM) | log2 mean competition ratio ([1]; 200 µM) | log2 mean competition ratio ([2]; 50 µM) | log2 mean competition ratio ([2]; 200 µM)
PRKDC C3293 (UniProt P78527) |  |  | -0.443 | -0.167
PRKDC C2342 (UniProt P78527) |  |  | -0.291 | -0.112
PRMT6 C221 (UniProt Q96LA8) |  |  | 0.448 | 0.443
PRKRA C163 (UniProt O75569) |  |  | 0.448 | 0.196
PPP1R12B C718 (UniProt O60237) |  |  | 0.253 | 0.00974
PRPS2 C91 (UniProt P11908) |  |  | -0.123 | -0.0708
